Article PMC10163288
This is one part of the list.

B1: il2ra_site2_3nfp_sap_19_mot_HHH_b2_02902_af2_000000043_0001_44_57_H_._HHH_b1_07323_af2_0001_0000100005_0000001_0_0001_af2pred_0001_af2pred (protein)
chain: SSSSDAEEEIKELLEKVEELLKEGDPEEAERLLKRVAKLVRELGDFELFHLVLELRRKVESSSSS
B2: il2ra_site1_1z92_sap_30_mot_HHH_b1_07156_000000060_0001_21_38_H_._43642e40158d6d50ca32f4d9c2045359_0001_0001_0000100001_0000001_0_0001 (protein)
chain: SSSSTEEALEYIEEMVRLKFELAERTNDERARELIEFLLRQAKLAGDPELAEEIEELLERLSSSS
B3: il2ra_site2_3nfp_normal_mot_HHH_b2_07129_000000128_0001_19_36_H_._HHH_b1_08270_0001_0001000010_0000001_0_af2pred_0001_1_af2pred_swapped (protein)
chain: SSSSDIEERILELLRRAKELYENGNPEEARKLIEEAEELAEELNDEEIRFLVKVALRELRLSSSS
B4: il2ra_site2_2erj_normal_mot_HHH_b1_01239_000000175_0001_43_57_H_._HHH_b2_04847_0001_0000100005_0000001_0_af2pred_0001_1_af2pred_swapped (protein)
chain: SSSSSSEEVEERIRELLERAEKIPDLREALELLQEASELAAELNDPELIELVTEVARRLSSSSSS
B5: il2ra_site1_3nfp_sap_16_mot_HHH_b1_01335_af2_000000258_0001_39_53_H_._a46e32ff5abe01017c5ab207d099328f_0001_1_af2_0001_0000200010_0000001_0_0001_af2pred_0001_af … (protein)
chain: SSSSSSDLEVAKIVIELAEEFNLDNELSRELIHLAAKLRLRGVSEEEIEEILREVAKELSSSSSS
B6: il2ra_site2_2erj_sap_25_mot_ems_p1-14H-GABBL-16H-GABBL-15H_0014_0001_0001_0001_000000124_0001_40_55_H_._HHH_b1_02157_af2_0002_0000100014_0000001_0_0001_af2pred_ … (protein)
chain: SSSDREEVAERVVEELVEELGLDERAKNLLEALARHLIELGASPEEIEKILEESARSAKEALSSS
B7: il2ra_site2_2erj_sap_19_mot_HHH_b2_02303_000000050_0001_43_56_H_._HHH_b2_02338_0001_0000200012_0000001_0_0001 (protein)
chain: SSSSNEELHELYELANELLRLVHEGDEEQFERVFEELERLIEKLDSRTARRILEWLRRHLHSSSS
B8: il2ra_site2_3nfp_normal_mot_HHH_b1_03818_000000217_0001_1_20_H_._HHH_b1_03372_af2_0001_0000400021_0000001_0 (protein)
chain: SSSSDEEKLEELEEEIKKLIEEGDKYEVFELVAELSELAARLQDEEAAEFVIEVYKWLKGSSSSS
B9: il2ra_site2_3nfp_sap_24_mot_HHH_b1_03818_000000217_0001_1_20_H_._HHH_b1_04518_af2_0001_0000400014_0000001_0_0001 (protein)
chain: SEKDLIEMSLEMIKAHALLHGNEEVQEIVEELERLLEEAKRKNDEELREEVAERAAELIERVLES
B10: il2ra_site2_3nfp_sap_12_mot_HHH_b1_03213_af2_000000225_0001_42_59_H_._HHH_b2_01792_0001_0000600042_0000001_0_0001_af2pred_0001_af2pred (protein)
chain: SSSSSDEEERERVEELLEEAKHIEDEFELFAVLADALEIALRLEDPELEELVRRVARELRSSSSS
B11: il2ra_site2_2erj_normal_mot_HHH_b2_04740_af2_000000163_0001_42_55_H_._ems_3hM_441_0001_0000400022_0000001_0 (protein)
chain: DEELEELIEELLEILEELLRENPEAVQMVRRAAKEAKKAVKNGDEELAEELVRVLEKFVRFLEES
B12: il2ra_site2_3nfp_normal_mot_HHH_b1_00660_af2_000000090_0001_40_57_H_._HHH_b2_00518_af2_0001_0000600042_0000001_0_af2pred_0001_af2pred (protein)
chain: SSSSSEDEERIEKLLEQAEEALEEGDEEKAKRLILEASQIAYEANNYELFALVLNVKEKLESSSS
B13: il2ra_site1_2b5i_normal_mot_HHH_b1_06258_af2_000000112_0001_42_56_H_._HHH_b2_03461_0001_0000100008_0000001_0 (protein)
chain: SSSSDQEERRVDELFREASRAYRRGDPEKARKLLEEALELAEELGDERAFEQIRFMLERLRSSSS
B14: il2ra_site1_1z92_normal_mot_01209686ea234b34325f918445e6eade_0001_af2_000000154_0001_18_33_H_._HHH_b2_04498_0001_0000200011_0000001_0_af2pred_0001_af2pred_1_swa … (protein)
chain: SSSSSDEEERIVEELIEELGGSEHDREAAERDAEAARRQGFSEENIRKALERAIRIFLERSSSSS
B15: il2ra_site1_2b5i_normal_mot_HHH_b2_04910_000000118_0001_1_19_H_._HHH_b1_05884_0001_0000300017_0000001_0_af2pred_dldesign_0_af2pred (protein)
chain: SSSSSAEARRLRELLLEADRLFQAGKEEEARATLERALELAKKAKANNTLKMIQSALENLGSSSS
B16: il2ra_site1_2b5i_sap_12_mot_HHH_b2_04545_af2_000000008_0001_21_36_H_._HHH_b1_01434_af2_0001_0000100005_0000001_0_0001_af2pred_dldesign_0_af2pred (protein)
chain: SSSSSSPKEEVEKLIEEAKKEPDREKTKELLDKAYDIAYEAEDKELIKKVIKVRYELKLSSSSSS
B17: il2ra_site1_3nfp_normal_mot_7cbdf275c6f204f9d60ac8802deb44b6_0001_1_000000034_0001_19_33_H_._HHH_b1_00879_0001_0000200007_0000001_0 (protein)
chain: SSSSTADEYLEELVQEAFEEGDRLQLRALIRLLRHALERLGNPIAKELLEKAEELLKELRSSSSS
B18: il2ra_site1_3nfp_normal_mot_HHH_b1_04372_000000168_0001_18_32_H_._HHH_b2_02112_0001_0000300024_0000001_0_af2pred_0001_af2pred (protein)
chain: SSSSSSEETEEARKEIEELLKRGDEEKLEEALEEAIEIARRNDSRSLVRFLEALLRLLRRSSSSS
B19: il2ra_site1_2b5i_sap_12_mot_HHH_b2_01648_000000060_0001_42_56_H_._HHH_b1_08267_af2_0001_0000300026_0000001_0_0001 (protein)
chain: SSSSDLEELDELFHEASEAWRRGNPEEARKLLEEALRLARELGDESAERDIERFLEMLRGSSSSS

target: il2ra, P01589; experiment: yeast display titration

Apparent Kd, inactive:
B1 > 650 nM
B2 no binding seen
B3 no binding seen
B4 no binding seen
B5 no binding seen
B6 no binding seen
B7 no binding seen
B8 no binding seen
B9 no binding seen
B10 no binding seen
B11 no binding seen
B12 no binding seen
B13 no binding seen
B14 no binding seen
B15 no binding seen
B16 no binding seen
B17 no binding seen
B18 no binding seen
B19 no binding seen

Not a retest: entries from further up.
Apparent Kd, inactive:
B15 no binding seen
B16 no binding seen
